Assay [1] concerns the target T1, BMP-2 (UniProt P12643).
T1 sequence (looked up): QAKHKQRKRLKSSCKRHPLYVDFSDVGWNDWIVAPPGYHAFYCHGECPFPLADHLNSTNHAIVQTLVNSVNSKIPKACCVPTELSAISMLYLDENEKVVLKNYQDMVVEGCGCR
Briefly: competition in immunoprecipitation on anti-BMP-2 beads; 2 or 10 ug Xenopus Noggin.

Assay [2] deals with T1, BMP-2. Description: reciprocal immunoprecipitation with 9E10 beads; BMP-2 detected by Western blot. On the technique in general: In western blotting, separated proteins are transferred to a membrane and probed.
Assay [3] deals with T1, BMP-2. Briefly: additional binding studies, not described.
Assay [4] addresses T1, BMP-2. Briefly: immunoprecipitation, as summed up in the discussion.
Assay [5] addresses T1, BMP-2. Briefly: COS supernatant with or without 1 ug BMP-2, anti-BMP-2 (h3b2) protein G sepharose beads, Western blot.
Assay [6] concerns the target T1, BMP-2. Description: competition in reciprocal immunoprecipitation; 2 or 10 ug human Noggin.
The target in assay [7] is T2, BMP-2, P12643.
T2 chain: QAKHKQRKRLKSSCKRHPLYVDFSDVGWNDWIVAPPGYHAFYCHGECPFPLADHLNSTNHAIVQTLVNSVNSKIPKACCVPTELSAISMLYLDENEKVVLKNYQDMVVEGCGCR
Description: immunoprecipitation, as summed up in the discussion. Particulars: remark: other sources report otherwise.

Assay [8] addresses T2, BMP-2, P12643. Briefly: COS supernatant with or without 1 ug BMP-2, anti-BMP-2 (h3b2) protein G sepharose beads, Western blot. Particulars: remark: other sources report otherwise.
The target in assay [9] is T2, BMP-2, P12643. Briefly: reciprocal immunoprecipitation with anti-hCerberus polyclonal beads; BMP-2 detected by Western blot. Particulars: remark: other sources report otherwise.

No constants are given. Whether binding was seen depends on the method and setting. Some binding calls cover weakened binding; strength is not graded here. For some of these results: Where a sequence is shown, tags or fusion partners need not be part of it.

B1: purified Xenopus Noggin (protein, UniProt P49011 20-222, looked up)
chain: RIDQGGCQHYLHIRPAPSENLPLVDLIEHPDPIYDPKEKDLNETLLRTLMVGHFDPNFMATILPEERLGVEDLGELDLLLRQKPSGAMPAEIKGLEFYEGLQSKKHRLSKKLRRKLQMWLWSQTFCPVLYTWNDLGTRFWPRYVKVGSCYSKRSCSVPEGMVCKAAKSMHLTILRWRCQRRVQQKCAWITIQYPVISECKCSC
Turning to B1, in the assay with BMP-2 [1], the binding result is listed as “binds”.

B2: hGremlin-MYC3 (protein, not shown: small tags and cut ends)
chain: KKKGSQGAIPPPDKAQHNDSEQTQSPQQPGSRNRGRGQGRGTAMPGEEVLESSQEALHVTERKYLKRDWCKTQPLKQTIHEEGCNSRTIINRFCYGQCNSFYIPRHIRKEEGSFQSCSFCKPKKFTTMMVTLNCPELQPPTKKKRVTRVKQCRCISIDLD
Regarding B2, the binding result in the assay with BMP-2 [2] is on record as “binds”.

B3: mDAN-MYC3 (protein, not shown: small tags and cut ends)
chain: KSAWCEAKNITQIVGHSGCEAKSIQNRACLGQCFSYSVPNTFPQSTESLVHCDSCMPAQSMWEIVTLECPDHEEVPRVDKLVEKIVHCSCQACGKEP
As for B3, the binding entry with BMP-2 [3], in the assay with BMP-2 [4], with BMP-2 [2] and with BMP-2 [5] was “binds” in each case.

B4: xGremlin-MYC3 (protein, not shown: small tags and cut ends)
chain: KKKVSGSQGAIPPPDKGQPNDSEQGQAQPGDRVRGKGKGQALAAEEVLESSQEALHVTERKYLKRDWCKTQPLKQTIHEDGCNSRTIINRFCYGQCNSFYIPRHIRREEGSFQSCSFCKPKKFTTMVVTLNCPELQPPTKKKRITRVKQCRCISIDLD
Turning to B4, the binding result with BMP-2 [3], in the assay with BMP-2 [4] and with BMP-2 [5] was “binds” each time.

B5: human Noggin (protein, UniProt Q13253 28-232, looked up)
chain: QHYLHIRPAPSDNLPLVDLIEHPDPIFDPKEKDLNETLLRSLLGGHYDPGFMATSPPEDRPGGGGGAAGGAEDLAELDQLLRQRPSGAMPSEIKGLEFSEGLAQGKKQRLSKKLRRKLQMWLWSQTFCPVLYAWNDLGSRFWPRYVKVGSCFSKRSCSVPEGMVCKPSKSVHLTVLRWRCQRRGGQRCGWIPIQYPIISECKCSC
On to B5, for which the binding entry with BMP-2 [6] is reported as “binds”.

B6: hCerberus-FLAG, O95813 18-267 (protein, human, UniProt O95813 18-267, looked up, not shown: small tags and cut ends)
chain: TRHQDGRQNQSSLSPVLLPRNQRELPTGNHEEAEEKPDLFVAVPHLVATSPAGEGQRQREKMLSRFGRFWKKPEREMHPSRDSDSEPFPPGTQSLIQPIDGMKMEKSPLREEAKKFWHHFMFRKTPASQGVILPIKSHEVHWETCRTVPFSQTITHEGCEKVVVQNNLCFGKCGSVHFPGAAQHSHTSCSHCLPAKFTTMHLPLNCTELSSVIKVVMLVEECQCKVKTEHEDGHILHAGSQDSFIPGVSA
B6: the binding result with BMP-2, P12643 [7] is recorded as “binds”; with BMP-2, P12643 [8], “binds”.

B7: hCerberus, O95813 18-267 (protein, human, UniProt O95813 18-267, looked up)
chain: TRHQDGRQNQSSLSPVLLPRNQRELPTGNHEEAEEKPDLFVAVPHLVATSPAGEGQRQREKMLSRFGRFWKKPEREMHPSRDSDSEPFPPGTQSLIQPIDGMKMEKSPLREEAKKFWHHFMFRKTPASQGVILPIKSHEVHWETCRTVPFSQTITHEGCEKVVVQNNLCFGKCGSVHFPGAAQHSHTSCSHCLPAKFTTMHLPLNCTELSSVIKVVMLVEECQCKVKTEHEDGHILHAGSQDSFIPGVSA
As for B7, in the assay with BMP-2, P12643 [9], the binding entry was “binds”.

The values are drawn from US6432410.
